The list shows a part of the results.
How the values were obtained:
Test in all cases: log2 fold change, soluble protein after heating vs DMSO (PISA); higher = thermal stabilisation; K562 cells, 10 uM, 30 min; active = over 0.2 and 3.5 SD of the protein, either way, in both replicates (recomputed)
[1] = compound: C1=CC=C(C=C1)[C@H](COC2=CC3=C(C=C2)NC(=O)N3)NC(=O)C4=CC=CN(C4=O)CC5=CC(=C(C=C5)F)F
Procedure, shortened: (§1)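 For each measurement, 10 μM compound was applied for 30 min to K562 cells at 2×10^6 cells/mL. Aliquots were heated for 3 min across 48°C-58°C, pooled, and extracted in PBS with 0.5% NP-40 at 4°C; the supernatant after 21,000xg for 90 min was soluble protein. This was quantified by TMTpro 16plex LC-MS/MS with channel sums equalised, and thermal stability was reported relative to control samples from duplicates, on a log2 fold-change scale.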

Amino acid sequences for entries named in this document (tags omitted). A change or cut given only in a name is not applied to a line headed by its entry.
UniProt Q8TE04: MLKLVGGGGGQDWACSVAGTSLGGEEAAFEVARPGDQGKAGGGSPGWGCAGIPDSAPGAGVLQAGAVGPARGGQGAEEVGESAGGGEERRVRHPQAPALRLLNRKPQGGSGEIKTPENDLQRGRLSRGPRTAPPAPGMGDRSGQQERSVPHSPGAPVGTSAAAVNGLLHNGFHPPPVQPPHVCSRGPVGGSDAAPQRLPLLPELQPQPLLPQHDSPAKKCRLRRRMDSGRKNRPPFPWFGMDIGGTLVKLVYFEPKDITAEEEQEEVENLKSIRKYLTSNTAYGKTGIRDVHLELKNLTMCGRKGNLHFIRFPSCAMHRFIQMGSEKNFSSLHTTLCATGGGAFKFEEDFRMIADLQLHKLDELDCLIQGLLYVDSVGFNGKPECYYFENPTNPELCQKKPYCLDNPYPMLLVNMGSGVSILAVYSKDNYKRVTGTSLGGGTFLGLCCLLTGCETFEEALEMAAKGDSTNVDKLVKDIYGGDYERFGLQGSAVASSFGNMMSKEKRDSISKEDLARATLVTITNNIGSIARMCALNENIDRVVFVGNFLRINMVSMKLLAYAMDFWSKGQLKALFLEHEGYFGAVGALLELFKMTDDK
UniProt Q7Z2X7: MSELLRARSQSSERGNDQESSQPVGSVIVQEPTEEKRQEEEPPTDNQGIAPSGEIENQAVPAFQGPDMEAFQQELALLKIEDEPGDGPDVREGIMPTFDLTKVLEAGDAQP
UniProt O15530: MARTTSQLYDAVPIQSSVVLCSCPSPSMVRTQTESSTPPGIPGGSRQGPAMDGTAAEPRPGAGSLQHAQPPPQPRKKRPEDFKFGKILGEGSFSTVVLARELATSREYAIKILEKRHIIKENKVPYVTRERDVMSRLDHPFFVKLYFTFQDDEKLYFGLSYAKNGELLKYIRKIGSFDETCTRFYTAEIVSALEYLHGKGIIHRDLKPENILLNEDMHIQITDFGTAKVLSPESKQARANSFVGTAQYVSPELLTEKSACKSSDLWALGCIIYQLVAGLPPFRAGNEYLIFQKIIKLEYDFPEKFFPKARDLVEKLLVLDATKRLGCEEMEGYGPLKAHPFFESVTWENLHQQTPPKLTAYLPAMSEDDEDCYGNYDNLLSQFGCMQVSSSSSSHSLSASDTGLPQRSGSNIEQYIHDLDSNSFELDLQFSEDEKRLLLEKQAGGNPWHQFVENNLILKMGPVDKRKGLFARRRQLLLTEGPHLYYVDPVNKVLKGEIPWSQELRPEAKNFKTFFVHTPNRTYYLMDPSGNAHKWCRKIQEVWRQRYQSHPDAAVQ
UniProt Q9H074: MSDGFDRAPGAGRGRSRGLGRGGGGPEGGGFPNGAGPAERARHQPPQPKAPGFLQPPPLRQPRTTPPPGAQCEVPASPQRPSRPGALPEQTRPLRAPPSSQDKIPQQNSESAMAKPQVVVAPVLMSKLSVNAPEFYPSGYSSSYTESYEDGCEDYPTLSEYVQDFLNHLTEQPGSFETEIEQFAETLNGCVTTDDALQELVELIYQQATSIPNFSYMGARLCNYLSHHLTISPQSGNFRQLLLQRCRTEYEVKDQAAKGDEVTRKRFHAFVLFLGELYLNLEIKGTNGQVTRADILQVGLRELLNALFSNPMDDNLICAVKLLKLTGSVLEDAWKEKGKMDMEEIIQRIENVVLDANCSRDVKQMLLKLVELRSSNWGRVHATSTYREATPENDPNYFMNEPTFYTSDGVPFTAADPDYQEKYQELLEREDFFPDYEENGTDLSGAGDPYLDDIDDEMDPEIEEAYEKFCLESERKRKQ
UniProt Q86U42: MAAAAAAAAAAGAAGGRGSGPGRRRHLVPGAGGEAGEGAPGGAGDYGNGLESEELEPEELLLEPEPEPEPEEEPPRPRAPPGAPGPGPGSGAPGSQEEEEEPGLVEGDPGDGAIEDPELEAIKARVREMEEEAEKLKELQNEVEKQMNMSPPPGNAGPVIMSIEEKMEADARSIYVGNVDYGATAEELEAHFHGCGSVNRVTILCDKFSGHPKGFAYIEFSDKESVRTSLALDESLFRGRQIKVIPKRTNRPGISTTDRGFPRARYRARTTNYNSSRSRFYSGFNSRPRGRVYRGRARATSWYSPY
UniProt Q9BPZ3: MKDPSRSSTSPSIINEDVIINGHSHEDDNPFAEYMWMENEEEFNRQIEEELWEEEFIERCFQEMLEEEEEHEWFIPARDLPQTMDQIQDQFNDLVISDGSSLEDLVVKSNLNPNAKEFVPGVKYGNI
UniProt Q96GD0: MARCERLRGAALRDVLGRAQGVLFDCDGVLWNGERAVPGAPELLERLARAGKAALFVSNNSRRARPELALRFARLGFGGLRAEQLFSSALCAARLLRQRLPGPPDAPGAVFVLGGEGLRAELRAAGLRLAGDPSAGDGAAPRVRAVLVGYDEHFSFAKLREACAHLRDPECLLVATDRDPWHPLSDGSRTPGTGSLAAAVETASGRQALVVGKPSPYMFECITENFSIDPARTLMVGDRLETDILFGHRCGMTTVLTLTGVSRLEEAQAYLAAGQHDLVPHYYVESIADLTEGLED
UniProt Q16342: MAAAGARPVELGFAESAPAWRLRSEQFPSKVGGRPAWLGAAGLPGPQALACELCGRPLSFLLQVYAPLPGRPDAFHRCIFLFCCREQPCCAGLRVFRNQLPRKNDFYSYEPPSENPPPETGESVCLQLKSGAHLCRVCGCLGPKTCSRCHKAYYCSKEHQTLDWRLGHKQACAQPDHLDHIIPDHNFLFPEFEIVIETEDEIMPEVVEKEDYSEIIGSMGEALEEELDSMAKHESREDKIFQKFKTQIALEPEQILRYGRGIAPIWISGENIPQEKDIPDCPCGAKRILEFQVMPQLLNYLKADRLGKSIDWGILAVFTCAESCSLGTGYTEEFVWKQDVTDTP
UniProt Q9H999: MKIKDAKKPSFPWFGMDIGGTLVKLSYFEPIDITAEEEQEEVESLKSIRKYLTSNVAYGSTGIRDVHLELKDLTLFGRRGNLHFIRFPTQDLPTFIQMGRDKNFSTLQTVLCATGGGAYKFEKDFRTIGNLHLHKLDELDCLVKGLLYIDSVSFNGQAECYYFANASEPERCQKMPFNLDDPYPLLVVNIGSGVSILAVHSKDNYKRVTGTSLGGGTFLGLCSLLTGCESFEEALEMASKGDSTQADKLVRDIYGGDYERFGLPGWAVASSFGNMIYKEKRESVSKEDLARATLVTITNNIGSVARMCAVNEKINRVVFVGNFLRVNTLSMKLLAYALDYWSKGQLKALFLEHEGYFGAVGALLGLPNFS
UniProt Q08174: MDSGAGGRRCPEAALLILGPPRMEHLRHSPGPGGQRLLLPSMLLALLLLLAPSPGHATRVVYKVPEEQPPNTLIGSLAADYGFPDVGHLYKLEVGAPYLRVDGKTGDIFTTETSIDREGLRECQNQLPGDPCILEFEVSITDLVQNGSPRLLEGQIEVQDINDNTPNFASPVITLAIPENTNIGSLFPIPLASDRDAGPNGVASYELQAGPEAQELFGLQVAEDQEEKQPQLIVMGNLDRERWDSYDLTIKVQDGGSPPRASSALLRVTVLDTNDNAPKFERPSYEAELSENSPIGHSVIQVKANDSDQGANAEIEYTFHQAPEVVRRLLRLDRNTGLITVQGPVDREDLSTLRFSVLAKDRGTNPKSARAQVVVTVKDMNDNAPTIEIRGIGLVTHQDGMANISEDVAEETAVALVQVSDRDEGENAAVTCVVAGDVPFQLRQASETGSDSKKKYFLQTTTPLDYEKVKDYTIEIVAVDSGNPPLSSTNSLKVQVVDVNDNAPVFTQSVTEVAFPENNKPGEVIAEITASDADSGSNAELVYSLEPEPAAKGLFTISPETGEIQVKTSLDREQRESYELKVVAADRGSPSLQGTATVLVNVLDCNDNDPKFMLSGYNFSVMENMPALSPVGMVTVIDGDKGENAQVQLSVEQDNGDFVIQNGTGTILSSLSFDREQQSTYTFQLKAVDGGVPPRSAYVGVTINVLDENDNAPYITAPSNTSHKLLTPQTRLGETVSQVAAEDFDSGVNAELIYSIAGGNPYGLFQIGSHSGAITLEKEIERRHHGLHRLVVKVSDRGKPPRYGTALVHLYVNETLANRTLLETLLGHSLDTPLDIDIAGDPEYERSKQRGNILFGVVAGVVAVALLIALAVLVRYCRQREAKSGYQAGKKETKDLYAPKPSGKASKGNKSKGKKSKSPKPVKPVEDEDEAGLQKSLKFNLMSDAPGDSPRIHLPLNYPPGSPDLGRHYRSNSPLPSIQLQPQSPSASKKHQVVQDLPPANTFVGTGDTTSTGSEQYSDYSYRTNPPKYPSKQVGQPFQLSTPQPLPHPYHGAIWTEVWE
UniProt P30086: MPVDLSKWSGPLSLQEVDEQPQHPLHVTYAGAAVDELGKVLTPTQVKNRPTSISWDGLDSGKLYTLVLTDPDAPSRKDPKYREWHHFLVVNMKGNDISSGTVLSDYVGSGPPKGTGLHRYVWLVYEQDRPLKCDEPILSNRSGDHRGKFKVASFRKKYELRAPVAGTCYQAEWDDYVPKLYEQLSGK
UniProt P29122: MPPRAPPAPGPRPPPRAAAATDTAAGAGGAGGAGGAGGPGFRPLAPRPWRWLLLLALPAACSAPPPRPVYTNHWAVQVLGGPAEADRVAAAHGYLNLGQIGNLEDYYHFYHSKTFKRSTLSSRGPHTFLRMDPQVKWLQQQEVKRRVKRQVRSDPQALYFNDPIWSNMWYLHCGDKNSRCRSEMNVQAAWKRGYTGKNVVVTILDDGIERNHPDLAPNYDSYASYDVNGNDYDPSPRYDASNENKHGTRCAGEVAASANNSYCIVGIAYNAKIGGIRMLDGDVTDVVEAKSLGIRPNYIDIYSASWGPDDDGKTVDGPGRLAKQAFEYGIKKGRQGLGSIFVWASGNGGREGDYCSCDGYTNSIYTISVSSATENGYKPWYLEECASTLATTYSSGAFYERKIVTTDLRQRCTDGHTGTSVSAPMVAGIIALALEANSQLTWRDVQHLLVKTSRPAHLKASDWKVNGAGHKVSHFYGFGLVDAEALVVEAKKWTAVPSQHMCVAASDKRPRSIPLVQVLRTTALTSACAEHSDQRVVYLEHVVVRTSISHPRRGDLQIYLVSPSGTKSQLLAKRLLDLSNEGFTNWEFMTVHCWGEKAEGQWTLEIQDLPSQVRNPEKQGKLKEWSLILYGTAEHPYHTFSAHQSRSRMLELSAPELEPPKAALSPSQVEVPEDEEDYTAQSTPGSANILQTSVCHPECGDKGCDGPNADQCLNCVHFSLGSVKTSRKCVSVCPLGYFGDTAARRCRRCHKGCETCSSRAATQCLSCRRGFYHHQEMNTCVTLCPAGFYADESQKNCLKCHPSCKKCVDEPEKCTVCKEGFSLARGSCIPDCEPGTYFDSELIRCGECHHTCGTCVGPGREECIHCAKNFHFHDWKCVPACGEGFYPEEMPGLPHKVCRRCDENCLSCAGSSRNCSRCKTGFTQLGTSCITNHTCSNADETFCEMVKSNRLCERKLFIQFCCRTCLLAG
UniProt O96013: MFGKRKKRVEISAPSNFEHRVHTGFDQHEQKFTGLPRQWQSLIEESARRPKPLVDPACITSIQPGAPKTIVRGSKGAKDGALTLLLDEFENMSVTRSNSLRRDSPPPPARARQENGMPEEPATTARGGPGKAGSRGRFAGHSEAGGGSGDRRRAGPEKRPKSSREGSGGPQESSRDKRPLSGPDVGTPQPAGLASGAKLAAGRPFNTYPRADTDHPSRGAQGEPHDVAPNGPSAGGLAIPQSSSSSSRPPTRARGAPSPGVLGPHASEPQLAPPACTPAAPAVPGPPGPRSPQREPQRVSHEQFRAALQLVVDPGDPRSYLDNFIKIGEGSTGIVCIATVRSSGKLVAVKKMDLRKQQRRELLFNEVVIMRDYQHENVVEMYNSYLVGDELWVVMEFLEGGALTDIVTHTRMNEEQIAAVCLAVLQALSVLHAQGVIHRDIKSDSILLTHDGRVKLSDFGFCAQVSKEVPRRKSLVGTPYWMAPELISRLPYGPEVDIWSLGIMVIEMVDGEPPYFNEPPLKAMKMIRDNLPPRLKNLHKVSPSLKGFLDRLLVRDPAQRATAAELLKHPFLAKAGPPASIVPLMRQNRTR
UniProt Q99497, whole entry, looked up: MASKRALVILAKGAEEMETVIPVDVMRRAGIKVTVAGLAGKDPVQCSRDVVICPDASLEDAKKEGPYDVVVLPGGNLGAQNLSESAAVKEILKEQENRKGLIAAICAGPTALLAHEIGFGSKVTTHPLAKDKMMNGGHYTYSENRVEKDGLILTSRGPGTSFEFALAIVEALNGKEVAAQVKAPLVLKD
UniProt Q99447: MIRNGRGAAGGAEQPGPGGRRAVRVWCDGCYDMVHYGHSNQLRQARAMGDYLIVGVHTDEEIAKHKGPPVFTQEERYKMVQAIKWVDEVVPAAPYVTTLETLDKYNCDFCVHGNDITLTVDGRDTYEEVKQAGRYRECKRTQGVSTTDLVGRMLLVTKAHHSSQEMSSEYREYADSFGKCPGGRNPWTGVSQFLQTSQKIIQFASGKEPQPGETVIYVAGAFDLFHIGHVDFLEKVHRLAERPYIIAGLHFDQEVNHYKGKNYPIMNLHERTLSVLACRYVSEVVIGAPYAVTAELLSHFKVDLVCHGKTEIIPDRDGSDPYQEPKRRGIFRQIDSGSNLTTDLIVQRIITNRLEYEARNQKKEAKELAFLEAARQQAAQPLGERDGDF

[2] = compound: CC1=C(SC2=C1C(=N[C@H](C3=NN=C(N32)C)CC(=O)N)C4=CC=C(C=C4)Cl)C
Procedure, shortened: as §1

[3] = compound: CC1=C2C(=CC=C1)N=C(N(C2=O)C3=CC=CC=C3C)CN4C=NC5=C(N=CN=C54)N
Procedure, shortened: as §1

[4] = compound: Cc1sc2c(c1C)C(c1ccc(Cl)cc1)=N[C@@H](CC(=O)OC(C)(C)C)c1nnc(C)n1-2
Procedure, shortened: as §1

[5] = compound: c1ccc([C@@H]2C[C@H]2NC2CCNCC2)cc1
Procedure, shortened: as §1

Measured: log2 fold change

PANK1 (UniProt Q8TE04)
inactive: [1] 0.02 | [2] -0.017 | [3] 0.059 | [4] -0.047 | [5] 0.022

PAGE2 (UniProt Q7Z2X7)
inactive: [1] -0.048 | [2] 0.086 | [3] -0.025 | [4] -0.021 | [5] -0.049

PDE4DIP (UniProt E9PS60)
inactive: [2] 0.013 | [3] -0.209 | [5] -0.069

PDPK1 (UniProt O15530)
inactive: [2] 0.065 | [3] 0.014 | [4] -0.038 | [5] -0.018

PDHA1 isoform 4 (UniProt P08559)
inactive: [1] 0.035 | [2] -0.123 | [3] -0.029 | [4] 0 | [5] -0.047

PARG (UniProt Q86W56)
inactive: [1] -0.043 | [2] -0.013 | [3] 0.018 | [4] -0.009 | [5] -0.075

PCNX1 (UniProt Q96RV3)
inactive: [1] 0.064 | [3] 0.103 | [4] -0.122

PAIP1 (UniProt Q9H074)
inactive: [1] 0.005 | [2] 0.047 | [3] 0.023 | [4] 0.031 | [5] -0.024

PARP16 isoform 3 (UniProt Q8N5Y8)
inactive: [1] -0.019 | [2] -0.019 | [3] 0.012 | [4] -0.041 | [5] 0.001

PAXBP1 (UniProt Q9Y5B6)
inactive: [1] 0.114 | [4] 0.031

PABPN1 (UniProt Q86U42)
inactive: [1] 0.077 | [2] -0.293 | [5] 0.118

PALM (UniProt O75781)
inactive: [3] 0.137

PDXP (UniProt B1AHD3)
inactive: [2] 0.029 | [3] -0.14 | [5] -0.285

PCBP2 (UniProt F8VZX2)
inactive: [1] -0.1 | [2] -0.107 | [5] 0.019

PAIP2 (UniProt Q9BPZ3)
inactive: [1] 0 | [2] 0.124 | [3] -0.011 | [4] 0.124 | [5] -0.083

PEX10 isoform 2 (UniProt O60683)
inactive: [2] 0.019 | [4] 0.007 | [5] -0.053

PDXP (UniProt Q96GD0)
inactive: [1] 0.01 | [2] 0.031 | [3] -0.001 | [4] -0.023 | [5] 0.024

PDCD2 (UniProt Q16342)
inactive: [1] -0.036 | [2] -0.075 | [4] 0.12 | [5] 0.077

PANK3 (UniProt Q9H999)
inactive: [1] 0.044 | [2] 0.072 | [4] -0.059 | [5] 0.267

PDIK1L (UniProt Q8N165)
inactive: [1] -0.255 | [2] 0.001 | [3] 0.044 | [4] 0.062 | [5] -0.005

PCIF1 (UniProt Q9H4Z3)
inactive: [1] 0.024 | [3] 0.077 | [4] -0.063

PCDH1 isoform 2 (UniProt Q08174)
inactive: [4] -0.072

PDIA4, A0A499FI48
inactive: [3] -0.2 | [4] 0.036

Two entries picked at random from the list so far, as already listed:
PDIA4, A0A499FI48
inactive: [3] -0.2 | [4] 0.036

PDIK1L (UniProt Q8N165)
inactive: [1] -0.255 | [2] 0.001 | [3] 0.044 | [4] 0.062 | [5] -0.005

(further entries)

PDZD11 isoform 2 (UniProt Q5EBL8)
inactive: [1] -0.001 | [3] 0.129 | [4] 0.01

PEBP1 (UniProt P30086)
inactive: [1] 0.012 | [2] 0.034 | [3] -0.037 | [4] 0.033 | [5] 0.02

PCMTD2 (UniProt Q9NV79)
inactive: [4] 0.023

PAN2 (UniProt Q504Q3)
inactive: [1] -0.298 | [3] 0.053

PCSK6 isoform 7 (UniProt P29122)
inactive: [1] -0.08 | [2] 0.064 | [3] 0.23 | [5] 0.073

PAK4 (UniProt O96013)
inactive: [1] -0.005 | [2] 0.045 | [3] 0.102 | [4] -0.02 | [5] -0.016

PCCA (UniProt P05165)
inactive: [1] -0.054 | [2] 0.034 | [3] 0.112 | [4] -0.03 | [5] -0.061

PARK7 (UniProt Q99497)
inactive: [1] 0.025 | [2] 0.04 | [3] -0.073 | [4] -0.079 | [5] -0.016

PCYT2 isoform 3 (UniProt Q99447)
inactive: [1] -0.023 | [2] 0.031 | [3] -0.005 | [4] -0.023 | [5] 0.003

PEMT isoform 2 (UniProt Q9UBM1)
inactive: [4] -0.019

PAF1 (UniProt Q8N7H5)
inactive: [2] -0.054 | [5] -0.006

Source: the supplement of paper PMC10849652
